We go through one compound from patent US12630500B2, “Hexasubstituted radialene compounds and applications thereof” (THE UNIVERSITY OF NORTH CAROLINA AT CHARLOTTE, priority 2019, dated 2026).

Each structure is given as a SMILES string.

A short description of data set [1]: Galvanostatic charge-discharge in symmetric static H-cell. To be noted: after 50 cycles (12 days).
Data set [2] is described as follows: Laboratory scale flow cell with MV(SO3)2 anolyte.

Consider `COC(=O)[C-](C#N)C1=C([C-](C#N)C(=O)OC)C1=C(C#N)C#N.[Na+].[Na+]` (centres unmarked) [Compound 3, diester-tetracyano [3] radialene dianion], for which the coulombic efficiency in data set [1] is listed as 98.7%; in data set [2] (flow cell, 50 cycles, 15 mA, 2.5 mL/min), 99.609%. Besides, the energy efficiency in data set [1] worked out at 72%. In addition, the “electrochemical yield of the flow cell” value in data set [2] (experimental vs. theoretical capacity, 50 cycles) is listed as “around 25%”. In data set [2] (flow cell, fifty cycles), this compound returned a capacity loss of 0.046 % per cycle.
